Assay results from article PMC11546553, “Chitin Translocation Is Functionally Coupled with Synthesis in Chitin Synthase” (International Journal of Molecular Sciences, 2024).
These are yes or no findings as the source states them, for the method shown. Some binding calls cover weakened binding; strength is not graded here.

Biological target: Phytophthora sojae chitin synthase 1 (Phytophthora sojae) (UniProt G4Z2L3)
Experiment: cryo-EM structure; purified PsCHS at 3 mg/mL in digitonin, incubated with 0.5 mM UDP-GlcNAc and 1 mM Mn2+ for 15 min or 40 min at 25 °C before freezing; UDP/Mn2+-bound state resolved for both samples; both purified

B1: Phytophthora sojae chitin synthase 1 (enzyme)
chain: MSGAPPPSSGFAPRSYGQQPLSHAPRSSMMSVEYDGIPLPPPSIRSCGSQQYVTSYIPTGAAFPPSSVQDMISSMKSYASATDLVRTYSEIPSVEEALSTLDRAAAALNARRYRDALKLYLEGGYAMANVAERQANPKICNLLTSKGFETLNWCARLCDWIEGRIKEKHPRPGVHKVGIPVSNWDEDWVGPFMDEEEARRMWYTPVYCPHPIDFSNLGYRLRCVETGRRPRLMICITMYNEGPQQLKATLKKLANNLAYLKEQMPGDEKSLTGAFAGDDVWQNVLVCIVADGREQVHPKTLDYLEAIGLYDEDLLTINSAGIGAQCHLFEHTLQLSVNGKCLLPIQTVFALKENKASKLDSHHWYFNAFAEQIQPEYTAVMDVGTMLTKSALYHLLFAFERNHQIGGACGQLTVDNPFENLSNWVISAQHFEYKISNILDKSLESCFGFISVLPGAFSAYRYEAIRGAPLDAYFQTLNIELDVLGPFIGNMYLAEDRILSFEVVARKNCNWTMHYVKDAVARTDVPHDLVGLISQRKRWLNGAFFATLFSIWNWGRIYSESKHTFVRKMAFLVFYVYHLLYTAFGFFLPANLYLALFFIVFQGFQQNRLEFIDTSEYSQTVLDCAVYIYNFSYLFGLLMLIIIGLGNNPKHMKLTYYFVGAVFGLMMMLSSLVGAGIFFSTPATVHSIVVSILTVGVYFIASALHGEVHHIFMTFTHYTALIPSFVNIFTIYSFCNLQDLSWGTKGLHDDPLLAASLDETEKGDFKDVIAKRRALEELRREEKERVENRKKNFEAFRTNVLLTWAFSNLIFALFVVYFASSSTYMPVLYIFVASLNTCRLLGSIGHWVYIHTEGLRGRVIDKSECGNGTGRYPQNSYVQLEEHYAALAEDQRTYASGRTNASVRTVNDVSSAA
notes: Phytophthora sojae chitin synthase 1 (PsCHS1), the PsCHS gene in pcDNA3.1; the final models lack residues 1-22, stretches within 40-90, 738-761 and 860-925; also called PsCHS; PsCHS1; source: HEK293F cells, transfected (pcDNA3.1), purified (digitonin solubilisation, Ni-NTA, Superose 6 Increase SEC)
binding: binds
